Assay results as given in the supplement of paper PMC10849652.
The other results are listed elsewhere or left out.

Chains of the proteins cited; added tags and fusions are not shown. Lines headed by an entry give the natural chain unless they say otherwise; changes in a name come on top.
UniProt Q15717, whole entry, looked up: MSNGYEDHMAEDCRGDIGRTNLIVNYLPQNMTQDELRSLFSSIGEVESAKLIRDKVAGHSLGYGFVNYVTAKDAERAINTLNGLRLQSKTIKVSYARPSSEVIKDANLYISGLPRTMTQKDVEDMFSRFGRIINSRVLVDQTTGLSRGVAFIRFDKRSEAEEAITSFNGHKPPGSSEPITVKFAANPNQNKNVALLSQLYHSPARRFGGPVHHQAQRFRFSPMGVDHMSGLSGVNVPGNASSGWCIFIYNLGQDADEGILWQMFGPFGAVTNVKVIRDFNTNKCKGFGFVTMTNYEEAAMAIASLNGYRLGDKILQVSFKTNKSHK
UniProt P50402: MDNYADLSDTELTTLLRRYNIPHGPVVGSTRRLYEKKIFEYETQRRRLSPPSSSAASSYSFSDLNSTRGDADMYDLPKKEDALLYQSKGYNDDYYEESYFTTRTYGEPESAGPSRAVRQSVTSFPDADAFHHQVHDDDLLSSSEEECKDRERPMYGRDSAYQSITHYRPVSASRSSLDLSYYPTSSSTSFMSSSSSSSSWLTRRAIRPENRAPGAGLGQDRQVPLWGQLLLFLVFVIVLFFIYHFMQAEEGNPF
UniProt Q92889: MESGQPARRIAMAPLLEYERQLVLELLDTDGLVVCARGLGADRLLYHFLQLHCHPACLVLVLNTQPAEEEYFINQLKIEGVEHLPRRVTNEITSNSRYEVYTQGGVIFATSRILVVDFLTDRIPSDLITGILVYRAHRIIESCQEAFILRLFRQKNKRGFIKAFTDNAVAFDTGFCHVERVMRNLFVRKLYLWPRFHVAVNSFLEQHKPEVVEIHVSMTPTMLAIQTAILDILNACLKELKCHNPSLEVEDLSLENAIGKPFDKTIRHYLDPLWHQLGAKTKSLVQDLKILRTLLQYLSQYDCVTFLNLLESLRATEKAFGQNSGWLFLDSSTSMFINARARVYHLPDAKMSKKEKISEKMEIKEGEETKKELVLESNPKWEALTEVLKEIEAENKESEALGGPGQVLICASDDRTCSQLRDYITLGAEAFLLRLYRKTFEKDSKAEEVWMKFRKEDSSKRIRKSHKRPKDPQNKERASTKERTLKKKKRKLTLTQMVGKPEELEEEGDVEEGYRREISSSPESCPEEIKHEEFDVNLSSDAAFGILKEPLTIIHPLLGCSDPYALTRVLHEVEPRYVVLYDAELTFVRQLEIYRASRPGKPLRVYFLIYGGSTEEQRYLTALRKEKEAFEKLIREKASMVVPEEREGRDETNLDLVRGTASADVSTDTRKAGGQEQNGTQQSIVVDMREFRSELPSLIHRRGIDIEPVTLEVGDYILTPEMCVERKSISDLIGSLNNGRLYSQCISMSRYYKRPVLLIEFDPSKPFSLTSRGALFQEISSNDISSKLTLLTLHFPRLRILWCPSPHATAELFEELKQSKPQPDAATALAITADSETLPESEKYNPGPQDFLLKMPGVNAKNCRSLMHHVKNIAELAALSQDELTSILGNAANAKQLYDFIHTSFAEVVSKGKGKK
UniProt Q9UI10, whole entry, looked up: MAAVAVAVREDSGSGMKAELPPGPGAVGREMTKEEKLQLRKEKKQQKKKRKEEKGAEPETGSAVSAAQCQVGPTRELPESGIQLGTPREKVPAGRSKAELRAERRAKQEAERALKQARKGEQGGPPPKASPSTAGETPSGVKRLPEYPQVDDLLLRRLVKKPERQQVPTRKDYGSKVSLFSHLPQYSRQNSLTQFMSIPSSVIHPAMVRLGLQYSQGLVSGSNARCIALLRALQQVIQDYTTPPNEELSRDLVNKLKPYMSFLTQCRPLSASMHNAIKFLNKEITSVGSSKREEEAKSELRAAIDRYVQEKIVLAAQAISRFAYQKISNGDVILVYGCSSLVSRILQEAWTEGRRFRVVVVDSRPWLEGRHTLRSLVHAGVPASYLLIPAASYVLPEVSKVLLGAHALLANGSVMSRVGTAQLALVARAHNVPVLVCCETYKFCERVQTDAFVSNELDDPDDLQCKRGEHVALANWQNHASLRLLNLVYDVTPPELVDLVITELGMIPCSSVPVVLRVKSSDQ
UniProt Q5NDL2: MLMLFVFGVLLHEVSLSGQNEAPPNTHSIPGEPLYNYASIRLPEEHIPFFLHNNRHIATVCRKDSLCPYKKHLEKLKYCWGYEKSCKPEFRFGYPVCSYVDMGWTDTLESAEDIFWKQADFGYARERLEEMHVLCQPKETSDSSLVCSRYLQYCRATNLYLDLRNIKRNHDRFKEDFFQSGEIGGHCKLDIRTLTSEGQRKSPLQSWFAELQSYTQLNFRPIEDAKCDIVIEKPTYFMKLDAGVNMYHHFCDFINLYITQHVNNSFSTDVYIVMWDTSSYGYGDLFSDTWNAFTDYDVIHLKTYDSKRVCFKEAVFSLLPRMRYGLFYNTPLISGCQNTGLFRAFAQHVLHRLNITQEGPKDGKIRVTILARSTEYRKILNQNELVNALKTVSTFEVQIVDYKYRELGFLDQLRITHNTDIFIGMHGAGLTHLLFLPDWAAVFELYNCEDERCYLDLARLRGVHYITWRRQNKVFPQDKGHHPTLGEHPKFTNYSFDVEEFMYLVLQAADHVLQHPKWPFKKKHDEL
UniProt Q6IA86: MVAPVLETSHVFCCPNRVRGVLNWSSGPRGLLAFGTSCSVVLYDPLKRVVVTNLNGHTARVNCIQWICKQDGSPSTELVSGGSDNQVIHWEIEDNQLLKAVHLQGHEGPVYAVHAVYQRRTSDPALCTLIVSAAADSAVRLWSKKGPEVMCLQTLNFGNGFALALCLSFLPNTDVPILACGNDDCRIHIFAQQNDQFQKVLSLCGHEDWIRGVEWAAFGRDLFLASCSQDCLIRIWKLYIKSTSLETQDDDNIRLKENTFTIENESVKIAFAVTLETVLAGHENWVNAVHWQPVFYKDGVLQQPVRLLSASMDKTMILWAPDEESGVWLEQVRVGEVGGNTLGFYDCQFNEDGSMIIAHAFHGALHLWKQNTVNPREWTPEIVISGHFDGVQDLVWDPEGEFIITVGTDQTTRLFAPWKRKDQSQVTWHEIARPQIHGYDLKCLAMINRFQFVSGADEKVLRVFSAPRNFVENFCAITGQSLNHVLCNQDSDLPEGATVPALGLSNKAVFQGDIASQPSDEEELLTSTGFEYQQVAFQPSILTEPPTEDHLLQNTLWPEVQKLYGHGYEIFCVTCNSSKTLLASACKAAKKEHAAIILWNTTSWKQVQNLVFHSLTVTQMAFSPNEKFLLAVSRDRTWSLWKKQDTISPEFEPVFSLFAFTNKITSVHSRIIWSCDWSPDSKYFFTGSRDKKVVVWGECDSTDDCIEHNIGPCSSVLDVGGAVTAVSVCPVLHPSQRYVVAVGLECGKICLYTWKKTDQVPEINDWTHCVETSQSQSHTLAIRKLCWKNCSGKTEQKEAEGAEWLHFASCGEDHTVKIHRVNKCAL
UniProt Q9Y2J2, whole entry, looked up: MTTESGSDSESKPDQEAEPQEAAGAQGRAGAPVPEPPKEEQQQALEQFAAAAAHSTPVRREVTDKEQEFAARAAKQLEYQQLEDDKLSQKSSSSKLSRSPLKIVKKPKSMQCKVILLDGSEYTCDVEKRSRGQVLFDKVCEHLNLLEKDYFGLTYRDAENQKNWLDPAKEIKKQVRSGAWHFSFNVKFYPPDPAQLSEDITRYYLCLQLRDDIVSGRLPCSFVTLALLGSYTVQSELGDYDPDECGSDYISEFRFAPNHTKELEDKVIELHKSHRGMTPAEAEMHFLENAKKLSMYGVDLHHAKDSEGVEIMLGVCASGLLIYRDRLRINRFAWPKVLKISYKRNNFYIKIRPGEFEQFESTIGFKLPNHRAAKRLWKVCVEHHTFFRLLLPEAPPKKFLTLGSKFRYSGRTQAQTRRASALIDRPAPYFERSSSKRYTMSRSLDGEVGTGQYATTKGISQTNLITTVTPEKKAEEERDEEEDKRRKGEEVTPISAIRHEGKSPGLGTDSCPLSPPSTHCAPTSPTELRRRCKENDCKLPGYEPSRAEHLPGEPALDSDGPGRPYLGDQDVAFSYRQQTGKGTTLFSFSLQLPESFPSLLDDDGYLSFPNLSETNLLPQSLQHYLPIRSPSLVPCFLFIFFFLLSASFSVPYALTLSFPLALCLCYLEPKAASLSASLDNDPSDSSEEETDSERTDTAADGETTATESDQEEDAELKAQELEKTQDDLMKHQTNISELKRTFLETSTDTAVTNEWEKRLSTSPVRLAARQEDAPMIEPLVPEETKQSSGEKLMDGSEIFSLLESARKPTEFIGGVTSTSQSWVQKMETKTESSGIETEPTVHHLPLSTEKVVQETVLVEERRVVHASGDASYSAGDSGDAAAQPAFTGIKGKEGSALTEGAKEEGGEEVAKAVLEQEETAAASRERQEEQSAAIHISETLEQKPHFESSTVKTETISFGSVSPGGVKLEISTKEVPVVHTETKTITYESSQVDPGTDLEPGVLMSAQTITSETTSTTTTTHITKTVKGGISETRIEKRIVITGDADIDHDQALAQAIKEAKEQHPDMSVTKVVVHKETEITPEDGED
UniProt Q15369, whole entry, looked up: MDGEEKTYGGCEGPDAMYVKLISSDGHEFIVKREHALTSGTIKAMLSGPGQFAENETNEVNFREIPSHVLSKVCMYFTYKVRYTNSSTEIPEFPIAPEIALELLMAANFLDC
UniProt P41214: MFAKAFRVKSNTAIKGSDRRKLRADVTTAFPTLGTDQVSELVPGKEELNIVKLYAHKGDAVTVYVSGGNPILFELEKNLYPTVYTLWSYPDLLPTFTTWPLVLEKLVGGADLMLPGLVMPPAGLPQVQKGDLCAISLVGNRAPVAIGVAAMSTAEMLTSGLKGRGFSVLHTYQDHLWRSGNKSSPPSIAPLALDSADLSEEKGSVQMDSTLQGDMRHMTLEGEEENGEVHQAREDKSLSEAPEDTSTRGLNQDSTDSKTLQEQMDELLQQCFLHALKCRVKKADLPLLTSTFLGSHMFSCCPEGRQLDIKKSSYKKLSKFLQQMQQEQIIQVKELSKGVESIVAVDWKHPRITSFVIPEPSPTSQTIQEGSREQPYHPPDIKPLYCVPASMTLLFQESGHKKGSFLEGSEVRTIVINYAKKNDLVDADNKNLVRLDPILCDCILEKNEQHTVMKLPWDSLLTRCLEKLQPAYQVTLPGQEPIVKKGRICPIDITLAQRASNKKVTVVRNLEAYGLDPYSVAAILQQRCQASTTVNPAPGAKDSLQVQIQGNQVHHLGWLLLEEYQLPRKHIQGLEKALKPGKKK

The targets below were run with c1cn2cc(-c3ccc4cn[nH]c4c3)nc(Nc3ccc(N4CCOCC4)cc3)c2n1 [entospletinib] (assay: log2 fold change, soluble protein after heating vs DMSO (PISA); higher = thermal stabilisation; K562 lysate, 10 uM; active = over 0.2 and 3.5 SD of the protein, either way, in both replicates (recomputed)).
How it was run: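 Log-two fold change in thermal stability relative to solvent controls is reported from duplicates. For each sample, crude K562 extract from dounce-homogenised pellets in PBS pH 7.4 with 1 mM MgCl2, at 1 mg/mL protein, was treated with 10 μM compound for 30 min. Aliquots heated for 3 min across 48°C-58°C were pooled, brought to 0.5% NP-40 at 4°C and cleared at 21,000xg for 90 min. The supernatant was quantified by TMTpro 16plex LC-MS/MS with channel sums equalised.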

log2 fold change, inactive:
ELAVL1 isoform 2 (UniProt Q15717) 0
EMD (UniProt P50402) -0.005
ERCC4 (UniProt Q92889) 0.021
EIF2B4 isoform 2 (UniProt Q9UI10) 0.012
EOGT (UniProt Q5NDL2) -0.052
ELP2 isoform 6 (UniProt Q6IA86) 0.036
EIF4H (UniProt Q15056) -0.013
EPB41L3 (UniProt Q9Y2J2) 0.017
ELOC (UniProt Q15369) 0.039
EIF2D (UniProt P41214) 0.02

Pulled one by one from the entries so far:
log2 fold change, inactive:
ELOC (UniProt Q15369) 0.039
EMD (UniProt P50402) -0.005
